Measurements as given in patent US11306122B2 (United States Government As Represented By The Department …, priority 2019, dated 2022).

Assay: peptide made by a vendor
Details: whole synthesis; run 1

Sequence: QDDSKVFKEGSCLLADDN
- purity (crude or final not stated): 96.65%

Plain letter strings leave the end groups untold.
